These are yes or no findings as the source states them, for the method shown. Some results given as binding are weak or reduced against the parent protein; the word gives no strength.
B1: anti-VISTA clone V4-C24 IgG1 (antibody, V domains shown)
VH: QVQLQESGPGLVKPSDTLSLTCTVSGYSITSDYTWNWIRQTPGKGLEWIGHITYSGSVSYNPSLRSRVTISRDTSKNQFSLKLSSVTAADTATYSCARALYYPWYFDVWGTGTTVTVSS
VL: EIVLTQSPATLSLSPGERATLSCRASSSVGYIHWYQQKPGQAPRPLIYTTSYRATGIPARFSGSGSGTDNTLTISSLEPEDSAVYYCQQWSSYPPITFGGGTKLEVKR
B2: anti-VISTA clone V4-C26 IgG1 (antibody, V domains shown)
VH: QVQLQESGPGLVKPSDTLSLTCTVSGYSITSDYTWNWIRQTPGKGLEWIGHITYSGSVSYNPSLRSRVTISRDTSKNQFSLKLSSVTAADTATYSCARALYYPWYFDVWGTGTTVTVSS
VL: EIVLTQSPATLSLSPGERATLSCRASSSVGYIHWYQQKPGQAPRPIIYTTSNRATGIPARFSGSGSGTDNTLTISSLEPEDSAVYYCQQWSSYPPITFGGGTKLEVKR
B3: anti-VISTA clone V4-C27 IgG1 (antibody, V domains shown)
VH: QVQLQESGPGLVKPSDTLSLTCTVSGYSITSDYTWNWIRQTPGKGLEWIGHITYSGSVSYNPSLRSRVTISRDTSKNQFSLKLSSVTAADTATYSCARALYYPWYFDVWGTGTTVTVSS
VL: EIVLTQSPATLSLSPGERATLSCRASSSVGYIHWYQQKPGQAPRPLIYATYNRATGIPARFSGSGSGTDNTLTISSLEPEDSAVYYCQQWSSYPPITFGGGTKLEVKR
B4: anti-VISTA clone V4-C31 IgG1 (antibody, V domains shown)
VH: QVQLQESGPGLVKPSDTLSLTCTVSGYSITSDYTWNWIRQTPGKGLEWIGHITYSGSVSYNPSLRSRVTISRDTSKNQFSLKLSSVTAADTATYSCARALYYPWYFDVWGTGTTVTVSS
VL: EIVLTQSPATLSLSPGERATLSCRASSSVGYIHWYQQKPGQAPRPLIYATYYRTTGIPARFSGSGSGTDNTLTISSLEPEDSAVYYCQQWSSYPPITFGGGTKLEVKR
B5: anti-VISTA clone V4-C30 IgG1 (antibody, V domains shown)
VH: QVQLQESGPGLVKPSDTLSLTCTVSGYSITSDYTWNWIRQTPGKGLEWIGHITYSGSVSYNPSLRSRVTISRDTSKNQFSLKLSSVTAADTATYSCARALYYPWYFDVWGTGTTVTVSS
VL: EIVLTQSPATLSLSPGERATLSCRASSSVGYIHWYQQKPGQAPRPLIYATYYRATGIPARFSGSGSGTDNTLTISSLEPEDSAVYYCQQWSSYPPITFGGGTKLEVKR
B6: anti-VISTA clone V4-C28 IgG1 (antibody, V domains shown)
VH: QVQLQESGPGLVKPSDTLSLTCTVSGYSITSDYTWNWIRQTPGKGLEWIGHITYSGSVSYNPSLRSRVTISRDTSKNQFSLKLSSVTAADTATYSCARALYYPWYFDVWGTGTTVTVSS
VL: EIVLTQSPATLSLSPGERATLSCRASSSVGYIHWYQQKPGQAPRPLIYATSYRATGIPARFSGSGSGTDNTLTISSLEPEDSAVYYCQQWSSYPPITFGGGTKLEVKR

target: cynomolgus macaque VISTA polypeptide (ELISA) (cynomolgus macaque); test: ELISA

binding, binds:
B1
B2
B3
B4
B5
B6

From patent US20210380697A1 (HUMMINGBIRD BIOSCIENCE PTE, published 2021)
